Reference: article PMC5940361, “Human LINE-1 retrotransposition requires a metastable coiled coil and a positively charged N-terminus in L1ORF1p” (eLife, 2018)
These are yes or no findings as the source states them, for the method shown.

By UniProt entry, the sequences of proteins in these tests, tags left out. Where a name states a change or a piece, a line headed by the entry shows the natural chain unless it says otherwise. Chains listed by the source or under a name are the forms on record and can include a tag or linker. Residues count along the entry.
hL1ORF1p-NTR^H6 (N-terminal region of human L1ORF1p, M1-N51-HHHHHH) (Q9UN81, residues 1-51): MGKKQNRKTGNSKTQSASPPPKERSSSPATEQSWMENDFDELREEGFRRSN
hL1ORF1p(DD)-NTR^H6 (NTR with phospho-mimicking S18D/S27D) (Q9UN81, form named): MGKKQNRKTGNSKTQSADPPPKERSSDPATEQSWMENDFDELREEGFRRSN
hL1ORF1p-ΔNTR (human L1ORF1p without the NTR, GPHMS53-M338) (Q9UN81, form named): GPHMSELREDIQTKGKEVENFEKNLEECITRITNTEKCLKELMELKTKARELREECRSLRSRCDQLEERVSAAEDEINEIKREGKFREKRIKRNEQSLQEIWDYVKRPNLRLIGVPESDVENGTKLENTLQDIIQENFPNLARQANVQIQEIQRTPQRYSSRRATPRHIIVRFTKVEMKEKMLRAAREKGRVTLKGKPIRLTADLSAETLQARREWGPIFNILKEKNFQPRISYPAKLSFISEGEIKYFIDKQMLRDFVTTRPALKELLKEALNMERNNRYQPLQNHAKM

Legend:
[1] = molecular target: hL1ORF1p(DD)-NTR^H6 (NTR with phospho-mimicking S18D/S27D) (human) (UniProt Q9UN81); assay: SEC-MALS; Superdex 200 (10/300 GL), gel filtration buffer (10 mM HEPES pH 7.5, 300 mM NaCl, 1 mM DTT); both purified
[2] = molecular target: hL1ORF1p-ΔNTR (human L1ORF1p without the NTR, GPHMS53-M338) (human) (UniProt Q9UN81); assay: SEC; NTR-binding assay: NTR peptide mixed 'in trans' with the hL1ORF1p-ΔNTR trimer, Superdex 200, gel filtration buffer; fractions on SDS PAGE; both purified
[3] = molecular target: hL1ORF1p-NTR^H6 (N-terminal region of human L1ORF1p, M1-N51-HHHHHH) (human) (UniProt Q9UN81); assay: SEC-MALS; Superdex 200 (10/300 GL), gel filtration buffer (10 mM HEPES pH 7.5, 300 mM NaCl, 1 mM DTT); both purified

binding [1] | binding [2] | binding [3] | Substance
no binding | no binding |  | hL1ORF1p(DD)-NTR^H6 (NTR with phospho-mimicking S18D/S27D) (from UniProt Q9UN81 1-51) (domain or fragment)
 | no binding | no binding | hL1ORF1p-NTR^H6 (N-terminal region of human L1ORF1p, M1-N51-HHHHHH) (from UniProt Q9UN81 1-51) (domain or fragment)
